Values from PubChem BioAssay AID1224826 (NIAID, 2016).
The whole screen tested about 17,000 reagents; shown is a part drawn at random. About 1,110 of all reagents (6.6%) were called active. 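Active means lowered or raised reporter signal; replicate intensities are raw and not normalised per plate.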 Not all columns of the deposit are shown. Reagent sequences are not shown.

Test: 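Regulators of Tlr4 signalling leading to Tnf-alpha expression in macrophages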 (primary screen)
Cell system: RAW264.7 G9 macrophages from mouse bearing reporters for p65 (GFP) and the Tnf promoter (mCherry)
Knock-down reagent: siRNA pool against mouse genes, 100 nM
Duration: 16 h of LPS stimulation, after 2 days of siRNA transfection
Challenge: bacterial lipopolysaccharide (Salmonella minnesota R595), 10 ng/ml
Detection: 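Nuclear mCherry signal of the Tnf promoter reporter measured by imaging after background removal, scaled to each plate median and turned into robust z-scores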
Direction: Tnf reporter robust z-score: higher = stronger Tnf promoter reporter signal after LPS
Rule for the call: 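a well counts as active at a score of -1.3 or below (Tlr4 knock-down control median) or above 3 (raised signal); controls and wells holding fewer than 50 cells are excluded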
Meaning of the calls: active = Tnf reporter clearly lowered or raised; inactive = no clear change in Tnf reporter

target	Tnf reporter robust z-score	fewer than 50 cells in well	Call
Zfp97 (zinc finger protein 97)	-0.24	enough cells in well	inactive
Rtcb (RNA 2',3'-cyclic phosphate and 5'-OH ligase)	-0.15	enough cells in well	inactive
Tubd1 (tubulin, delta 1)	0.57	enough cells in well	inactive
Kif22 (kinesin family member 22)	0.28	enough cells in well	inactive
Abhd11 (abhydrolase domain containing 11)	0.31	enough cells in well	inactive
Krtap13 (keratin associated protein 13)	0.01	enough cells in well	inactive
Mog (myelin oligodendrocyte glycoprotein)	1.11	enough cells in well	inactive
Vmn1r14 (vomeronasal 1 receptor 14)	3.76	enough cells in well	active
Cdk7 (cyclin dependent kinase 7)	-0.31	enough cells in well	inactive
Aldh1a3 (aldehyde dehydrogenase family 1, subfamily A3)	-1.31	enough cells in well	active
Prss27 (serine protease 27)	1.35	enough cells in well	inactive
Slc22a4	0.34	enough cells in well	inactive
Cxcr5 (C-X-C motif chemokine receptor 5)	0.87	enough cells in well	inactive
Klhl24 (kelch-like 24)	-0.51	enough cells in well	inactive
Or4c102 (olfactory receptor family 4 subfamily C member 102)	-0.19	enough cells in well	inactive
C2cd5 (C2 calcium-dependent domain containing 5)	0.1	enough cells in well	inactive
Rnf185 (ring finger protein 185)	-0.9	enough cells in well	inactive
Or1m1 (olfactory receptor family 1 subfamily M member 1)	0.12	enough cells in well	inactive
Pou1f1 (POU domain, class 1, transcription factor 1)	-0.13	enough cells in well	inactive
Acp6 (acid phosphatase 6, lysophosphatidic)	1.16	enough cells in well	inactive
Dhrs9 (dehydrogenase/reductase 9)	0.7	enough cells in well	inactive
Myct1 (myc target 1)	-0.93	enough cells in well	inactive
Eefsec (eukaryotic elongation factor, selenocysteine-tRNA-specific)	0.7	enough cells in well	inactive
Mrpl50 (mitochondrial ribosomal protein L50)	0.53	enough cells in well	inactive

Copied from the list:
Result for Mog (myelin oligodendrocyte glycoprotein) under “fewer than 50 cells in well”: enough cells in well
Under “Tnf reporter robust z-score”, Pou1f1 (POU domain, class 1, transcription factor 1) reads -0.13
